The source of these data is publication PMC7862700.

The list shows a part of the results, in another mix than the full data. At the low end of the ranking, values are background and their order means little.

The first assay concerns the target T1, ELK1 (UniProt P19419).
T1 sequence: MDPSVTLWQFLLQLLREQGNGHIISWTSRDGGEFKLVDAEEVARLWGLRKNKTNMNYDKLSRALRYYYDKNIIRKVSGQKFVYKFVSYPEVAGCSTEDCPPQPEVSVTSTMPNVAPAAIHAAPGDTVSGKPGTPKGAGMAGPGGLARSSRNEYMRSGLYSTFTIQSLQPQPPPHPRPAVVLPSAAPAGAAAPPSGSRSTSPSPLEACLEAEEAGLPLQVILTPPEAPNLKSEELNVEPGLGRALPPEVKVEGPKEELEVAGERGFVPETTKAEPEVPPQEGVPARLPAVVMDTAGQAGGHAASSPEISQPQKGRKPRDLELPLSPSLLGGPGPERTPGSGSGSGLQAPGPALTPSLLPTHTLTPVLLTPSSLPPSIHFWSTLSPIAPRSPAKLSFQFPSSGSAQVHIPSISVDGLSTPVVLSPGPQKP
Put plainly: DAPPL (digital affinity profiling via proximity ligation, sequencing). The settings on record: 10 mM Tris-HCl pH 7.5, 50 mM NaCl, 1 mM DTT, 4% glycerol, room temperature, 30 min; GST-TFs on glutathione beads, 16-mer random dsDNA library, 0.1% …; high values mean tight binding; double strand, one strand shown; scale: fold enrichment (6-mer frequency, TF over GST control).
On to GACATT, for which the binding signal worked out at 1.17.

In turn, ACCTTC gave a binding signal of 1.94.

AATTAC showed a binding signal of 1.19.

With CTGCGC, the binding signal amounted to 1.4.

AGCACA yielded a binding signal of 1.01.

For TCACTC, the binding signal came out at 1.19.

In turn, AAAATG returned a binding signal of 1.15.

In turn, CGAACT came in with a binding signal of 1.17.

With GCTCTC, the binding signal came out at 1.5.

As to ATTTCG, the binding signal is 1.25.

GTTTAT gave a binding signal of 1.02.

ACCTTA: the binding signal stood at 1.24.

Sequence CGAACA showed a binding signal of 1.08.

AGTAGC came in with a binding signal of 0.981.

Sequence AAATAA gave a binding signal of 1.32.

Take AACTCA: the binding signal was 1.27.

Sequence AAGCCT showed a binding signal of 1.22.

In the case of GTTGCG, the binding signal was determined as 1.04.

With TTTTTC, the binding signal came to 1.15.

ACGCAC came in with a binding signal of 1.09.

The sequence GATCAA registered a binding signal of 0.979.

The sequence GTTCTG came in with a binding signal of 1.21.

Sequence TATACC gave a binding signal of 1.31.

For GTTCCT, the binding signal is 1.69.

Take TCACCC: the binding signal came out at 1.23.

Regarding ACCCAA, the binding signal stood at 1.15.

Regarding ATCTAT, the binding signal stood at 1.14.

In turn, TTCCCA yielded a binding signal of 1.3.

As to CATGGT, the binding signal was 1.29.

In turn, ATCTTA had a binding signal of 1.07.

In turn, AAACCG returned a binding signal of 1.05.

As to CTTAGC, the binding signal was 1.17.

On to ATATAA, for which the binding signal was determined as 1.22.

As for TGATAT, the binding signal is 1.11.

Take CTCATC: the binding signal came out at 1.36.

The sequence TCTAGA displayed a binding signal of 0.99.

With ATGACC, the binding signal was found to be 1.58.

In a further assay the target is T2, ELK3 (UniProt P41970).
T2 sequence: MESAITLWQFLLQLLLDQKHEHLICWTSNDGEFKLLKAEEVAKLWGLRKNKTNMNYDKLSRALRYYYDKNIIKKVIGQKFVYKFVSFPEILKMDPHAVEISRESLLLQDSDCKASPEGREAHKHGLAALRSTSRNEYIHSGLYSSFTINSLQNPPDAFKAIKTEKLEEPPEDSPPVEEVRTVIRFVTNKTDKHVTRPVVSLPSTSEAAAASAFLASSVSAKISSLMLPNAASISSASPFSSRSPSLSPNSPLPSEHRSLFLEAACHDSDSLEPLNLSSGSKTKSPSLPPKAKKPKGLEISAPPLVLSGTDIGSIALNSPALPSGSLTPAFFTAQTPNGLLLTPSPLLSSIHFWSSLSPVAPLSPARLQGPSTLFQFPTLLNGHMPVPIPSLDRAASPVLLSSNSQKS
The assay is described as above. The settings on record: 10 mM Tris-HCl pH 7.5, 50 mM NaCl, 1 mM DTT, 4% glycerol, room temperature, 30 min; GST-TFs on glutathione beads, 16-mer random dsDNA library, 0.1% …; high values mean tight binding; double strand, one strand shown; scale: fold enrichment (6-mer frequency, TF over GST control).
Consider CCTTCC, for which the binding signal came to 2.47.

Regarding GGTACA, the binding signal was determined as 0.899.

In turn, TCTTCC returned a binding signal of 2.79.

Another assay has as its target T3, SPIC (UniProt Q8N5J4).
T3 sequence: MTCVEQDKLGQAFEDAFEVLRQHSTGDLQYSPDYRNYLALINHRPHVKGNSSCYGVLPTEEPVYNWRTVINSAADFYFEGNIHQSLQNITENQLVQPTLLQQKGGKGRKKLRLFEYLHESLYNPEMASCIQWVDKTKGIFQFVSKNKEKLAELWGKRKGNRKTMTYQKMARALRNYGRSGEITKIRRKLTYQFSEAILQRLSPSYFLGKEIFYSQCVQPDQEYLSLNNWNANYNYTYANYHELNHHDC
Described as above. The settings on record: 10 mM Tris-HCl pH 7.5, 50 mM NaCl, 1 mM DTT, 4% glycerol, room temperature, 30 min; GST-TFs on glutathione beads, 16-mer random dsDNA library, 0.1% …; high values mean tight binding; double strand, one strand shown; scale: fold enrichment (6-mer frequency, TF over GST control).
In turn, CCTTCC showed a binding signal of 2.36.

For the sequence GGTACA, the binding signal amounted to 0.979.

TCTTCC showed a binding signal of 2.31.
